PubChem BioAssay AID1259415 (National Center for Advancing Translational Sciences (NCATS), 2018)
The campaign covered roughly 410,000 compounds. About 18,000 (4.4%) were called active. Inconclusive means that the source gave no clear call. Such entries were picked first, then a sample of the others. Cut-off read from the data, not from the text of the source: active = activity change below about -60%; inconclusive = no clear call, values can overlap the other calls; inactive = above about -39%.

Assay: qHTS Assay for inhibitors of the human cytomegalovirus (HCMV)
Settings: HFF cells, HCMV-luciferase reporter, 72 h; at 57.5 µM; hits give low values
Procedure, shortened: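 Human foreskin fibroblasts infected with luciferase-reporter HCMV at MOI 1 PFU/cell, compounds at two doses. Luciferase measured 72 h post infection; normalized to buffer-only basal and Salinomycin (10uM) controls.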
% is set by controls: 0 for no effect and ±100 for the full control effect.

| Compound | activity change, negative = inhibition |
| --- | --- |
| CC(=O)NC(Cc1cc(C)ccc1C)C(=O)N1CCN(C(=O)c2ccc(Br)cc2)CC1 (centres undefined) | inconclusive: -44.6% |
| CCn1cc([N+](=O)[O-])c(C(=O)Nc2ccn(Cc3ccccc3F)n2)n1 | inconclusive: -41.5% |
| CCOC(=O)c1sc2nc(C)cc(-c3ccccc3)c2c1N | inconclusive: -51.1% |
| COc1ccc(N2CC3=C(C2=O)C(c2ccc(Br)cc2)NC(=O)N3C)cc1 (centres undefined) | active: -99.5% |
| COc1cc(-c2nnc(SCC(=O)NC3CCS(=O)(=O)C3)o2)cc(OC)c1OC (centres undefined) | inactive: -11.2% |
| Cc1cc(Nc2sc(C(=O)c3ccc(F)cc3)c(N)c2C(=O)Nc2ccc(F)cc2)ccc1Cl | active: -108% |
| COCCn1c(-c2ccc(Cl)cc2)cnc1SCC(=O)NCCc1ccc(OC)c(OC)c1 | inconclusive: -56.1% |
| Cc1ccc(-c2nnc(Nc3ccc(O)cc3)c3ccccc23)cc1S(=O)(=O)NCc1nc2ccccc2[nH]1 | inactive: -15.8% |
| COC(=O)c1[nH]c2cccc(C)c2c1NC(=O)CN1CCN(c2ccccc2OC)CC1 | inconclusive: -45% |
| CC1CCN(S(=O)(=O)c2ccc(C(=O)NC3CCS(=O)(=O)C3)cc2)CC1 (centres undefined) | inconclusive: -52.1% |
| Cc1cccc[n+]1CCCCCCCCCC[n+]1ccccc1C | inconclusive: -45% |
| CCC(=O)N(Cc1c(C)nn(-c2ccccc2)c1Cl)c1ccc(Cl)cc1 | inconclusive: -52.9% |
| COc1ccc(CC(=O)Nc2nnc(SCc3ccccc3)s2)cc1S(=O)(=O)N1CCOCC1 | inactive: 24.7% |
| CC(=O)NC(c1cccs1)c1cc(F)c2cccnc2c1O (centres undefined) | active: -100% |
| O=C(c1ccc(-c2ccc(Cl)cc2)o1)N1CCN(c2ccc([N+](=O)[O-])cc2Cl)CC1 | active: -80.4% |
| C=C(C)c1cccc(C(C)(C)NC(=O)Nc2ccc3[nH]c(=O)[nH]c3c2)c1 | inconclusive: -45.1% |
| CCOc1ccccc1N(CC(=O)Nc1ccc(OC)cc1OC)S(=O)(=O)c1ccccc1 | inconclusive: -54.3% |
| COc1ccc(-c2nn(-c3ccccc3)cc2C(=O)N2c3ccc(C)cc3C3CN(C)CCC32)cc1 (centres undefined) | inconclusive: -43.1% |
| COCCCNc1nc2c(-c3ccccc3)nnn2c2ccccc12 | inconclusive: -55.9% |
| Cc1ccc(-c2csc(NC(=O)CN3CCOCC3)n2)cc1 | inconclusive: -47.3% |
| O=C(CSc1nncn2c1cc1sccc12)Nc1ccccc1C(F)(F)F | active: -72.7% |
| Cc1cc(OCC(=O)Nc2ccccc2C)no1 | inconclusive: -45.4% |
| Nc1c(C(=O)Nc2cccc(Cl)c2)sc2nc3c(cc12)CN(Cc1ccccc1)CC3 | inconclusive: -40.2% |
| CC(=O)Oc1ccc(N(C(C)=O)S(=O)(=O)c2cc([N+](=O)[O-])ccc2C)cc1 | inconclusive: -44.9% |
| CCOC(=O)c1c(NC(=O)C(C)Sc2cn(CCNC(=O)c3ccc(OC)c(OC)c3)c3ccccc23)sc2c1CCC2 (centres undefined) | active: -108% |
| C=CCNC(=S)N/N=C/c1ccc(C(C)(C)C)cc1 | inconclusive: -47.8% |
| CC(C)NC(=O)c1ccc(Cn2c(=O)c3cccn3c3cccnc32)cc1 | inconclusive: -46.3% |

| Compound | activity change, negative = inhibition |
| --- | --- |
| Cc1ccc(N)c2c1OCCC2=O | inactive: -12.6% |
| O=C(Nc1ccc(F)c(F)c1)c1oc2ccccc2c1NC(=O)C1CCCO1 (centres undefined) | active: -64.8% |
| NS(=O)(=O)c1ccc(CCNc2nn3c(-c4cccc(OC(F)(F)F)c4)cnc3s2)cc1 | active: -97.5% |
| CN1C(=O)/C(=C/c2ccccc2OCc2ccccc2)NC1=S | inconclusive: -45.6% |
| Cc1ccc(Cl)cc1N1CCN(C(=O)c2cn(C)c3ccc(S(=O)(=O)N(C)C4CCCCC4)cc3c2=O)CC1 | inactive: 19.9% |
| O=C(NCc1ccco1)C1CC(c2ccc(Cl)cc2)=NO1 (centres undefined) | inactive: 22.7% |
| Cc1ccc[n+](CC(=O)c2ccc(-c3ccccc3)cc2)c1 | active: -68.4% |
| COc1ccc(C(=O)/C=C2/C(=O)Nc3ccccc32)cc1 | inactive: -13.4% |
| COc1ccccc1C(=O)NC(=S)Nc1cccnc1Cl | inactive: 55.9% |
| CN(Cc1ccccc1)C(=S)Nc1ccc2nc3n(c(=O)c2c1)CCCCC3 | inactive: 24.5% |
| CC(C(=O)Nc1ccncc1)(c1ccccc1)c1ccccc1 | inactive: -27.4% |
| Cc1ccc(NC(=S)NNC(C)(C)C)cc1 | inconclusive: -47.8% |
| COc1cc(SC)ccc1C(=O)Nc1c(C)cccc1C | inconclusive: -41.6% |
| COC(=O)C1=C(c2ccccc2OCc2ccccc2)C[C@@H]2CC[C@H]1N2C(=O)NCc1ccc(N(C)C)cc1 | inconclusive: -43.2% |
| COc1cccc(CC2(CO)CCCN(Cc3cn[nH]c3-c3cc(C)ccc3C)C2)c1 (centres undefined) | inactive: 6.15% |
| CN(C(=O)c1ccc2c(c1)N(Cc1ccccc1F)C(=O)c1ccccc1S2)C1CCCCC1 | inconclusive: -46.9% |
| C/C(=N\NC(=S)Nc1ccccc1)c1c(O)n(C)c(=O)n(C)c1=O | inactive: -18.6% |
| COc1cccc(-c2ccc(=O)n(CC(=O)Nc3ccc(C(=O)N4CCCC4)cc3)n2)c1 | inconclusive: -44.3% |
| COCC(C)N1C(=O)Cc2c1nc(N)c1c(N)nc(N3CCN(c4ccccc4F)CC3)c(C#N)c21 (centres undefined) | inconclusive: -46.3% |
| Cc1ccc(NC(=O)C(OC(=O)c2cc(C)oc2C)c2ccccc2)cc1 (centres undefined) | active: -60.7% |
| CCc1ccc(OCC(=O)N(Cc2ccco2)Cc2ccco2)cc1 | inactive: -2.94% |
| CCOc1ccc(S(=O)(=O)NCc2ccccc2)cc1C(N)=O | inconclusive: -40.7% |
| O=C(c1cc(-c2ccc(Cl)c(Cl)c2)on1)N1CCN(c2ccccc2)CC1 | inconclusive: -59.7% |
| O=[N+]([O-])c1cccc(/C=C2\CCc3cnn(C4CCS(=O)(=O)C4)c32)c1 (centres undefined) | inconclusive: -41.9% |
| FC(F)(F)c1cc(-c2ccccc2)nc2ncnn12 | inconclusive: -46.4% |
| O=[N+]([O-])c1cccc(Cl)c1NCCNc1ncc(C(F)(F)F)cc1Cl | inactive: 10% |
| COc1ccccc1C1C2=C(N=c3s/c(=C/c4cccc(OCC(=O)O)c4)c(=O)n31)c1ccccc1CC2 (centres undefined) | inconclusive: -55.4% |

Rewritten bar-delimited: four of the compounds above.
Compound | activity change, negative = inhibition
Cc1ccc(Cl)cc1N1CCN(C(=O)c2cn(C)c3ccc(S(=O)(=O)N(C)C4CCCCC4)cc3c2=O)CC1 | inactive: 19.9%
O=C(NCc1ccco1)C1CC(c2ccc(Cl)cc2)=NO1 (centres undefined) | inactive: 22.7%
Cc1ccc[n+](CC(=O)c2ccc(-c3ccccc3)cc2)c1 | active: -68.4%
COc1ccc(C(=O)/C=C2/C(=O)Nc3ccccc32)cc1 | inactive: -13.4%
